According to the supplement of paper PMC8612539:
In brackets after ≈: the same amount, converted by molar mass. This continues a long series; more values of the same kind are listed elsewhere.

Test system: Escherichia coli
Experiment: minimum inhibitory concentration (MIC)
Protocol: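 Broth microdilution MIC (Sensititre BOPO7F bovine plate, CLSI methods) of 19 antimicrobials against field isolates of P. multocida, M. haemolytica, H. somni (deep nasopharyngeal swabs) and E. coli, Enterococcus spp. (rectal swabs) from weaned dairy heifers. Incubation 16-24 h at 35 C. MIC is the lowest concentration preventing visible growth. Values with <= or > lie at the tested range limits. Trimethoprim-sulfamethoxazole is given as the trimethoprim component of a 1:19 mixture.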

CCCN1C[C@H](C)[C@@H](O)[C@](C)(O)[C@@H](CC)OC(=O)[C@H](C)[C@@H](O[C@H]2C[C@@](C)(OC)[C@@H](O)[C@H](C)O2)[C@H](C)[C@@H](O[C@@H]2O[C@H](C)C[C@H](N(C)C)[C@H]2O)[C@](C)(O)C[C@H]1C [Gamithromycin]
Conditions	minimum inhibitory concentration [µg/mL]
isolate (source animal id): 221	8 (≈ 10.3 µM)
isolate (source animal id): 222	8 (≈ 10.3 µM)
isolate (source animal id): 223	8 (≈ 10.3 µM)
isolate (source animal id): 224	8 (≈ 10.3 µM)
isolate (source animal id): 225	8 (≈ 10.3 µM)
isolate (source animal id): 226	8 (≈ 10.3 µM)
isolate (source animal id): 227	2 (≈ 2.57 µM)
isolate (source animal id): 228	2 (≈ 2.57 µM)
isolate (source animal id): 229	> 8
isolate (source animal id): 230	8 (≈ 10.3 µM)
isolate (source animal id): 231	8 (≈ 10.3 µM)
isolate (source animal id): 232	8 (≈ 10.3 µM)
isolate (source animal id): 233	2 (≈ 2.57 µM)
isolate (source animal id): 234	8 (≈ 10.3 µM)
isolate (source animal id): 235	4 (≈ 5.15 µM)
isolate (source animal id): 236	8 (≈ 10.3 µM)
isolate (source animal id): 237	8 (≈ 10.3 µM)
isolate (source animal id): 238	4 (≈ 5.15 µM)
isolate (source animal id): 239	4 (≈ 5.15 µM)
isolate (source animal id): 240	8 (≈ 10.3 µM)
isolate (source animal id): 241	8 (≈ 10.3 µM)
isolate (source animal id): 242	4 (≈ 5.15 µM)
isolate (source animal id): 243	8 (≈ 10.3 µM)
isolate (source animal id): 244	> 8
isolate (source animal id): 245	8 (≈ 10.3 µM)
isolate (source animal id): 246	8 (≈ 10.3 µM)
isolate (source animal id): 247	2 (≈ 2.57 µM)
isolate (source animal id): 248	8 (≈ 10.3 µM)
isolate (source animal id): 249	8 (≈ 10.3 µM)
isolate (source animal id): 250	8 (≈ 10.3 µM)
isolate (source animal id): 251	8 (≈ 10.3 µM)
isolate (source animal id): 252	8 (≈ 10.3 µM)
isolate (source animal id): 253	8 (≈ 10.3 µM)
isolate (source animal id): 254	8 (≈ 10.3 µM)
isolate (source animal id): 255	8 (≈ 10.3 µM)
isolate (source animal id): 256	8 (≈ 10.3 µM)
isolate (source animal id): 257	8 (≈ 10.3 µM)
isolate (source animal id): 258	> 8
isolate (source animal id): 259	8 (≈ 10.3 µM)
isolate (source animal id): 260	8 (≈ 10.3 µM)
isolate (source animal id): 261	8 (≈ 10.3 µM)
isolate (source animal id): 262	8 (≈ 10.3 µM)
isolate (source animal id): 263	8 (≈ 10.3 µM)
isolate (source animal id): 264	8 (≈ 10.3 µM)
isolate (source animal id): 265	8 (≈ 10.3 µM)
isolate (source animal id): 266	4 (≈ 5.15 µM)
isolate (source animal id): 267	2 (≈ 2.57 µM)
isolate (source animal id): 268	8 (≈ 10.3 µM)
isolate (source animal id): 269	8 (≈ 10.3 µM)
isolate (source animal id): 270	8 (≈ 10.3 µM)
isolate (source animal id): 271	2 (≈ 2.57 µM)
isolate (source animal id): 272	8 (≈ 10.3 µM)
isolate (source animal id): 273	8 (≈ 10.3 µM)
isolate (source animal id): 274	8 (≈ 10.3 µM)
isolate (source animal id): 275	4 (≈ 5.15 µM)
isolate (source animal id): 276	8 (≈ 10.3 µM)
isolate (source animal id): 277	8 (≈ 10.3 µM)
isolate (source animal id): 278	8 (≈ 10.3 µM)
isolate (source animal id): 279	8 (≈ 10.3 µM)
isolate (source animal id): 280	8 (≈ 10.3 µM)
isolate (source animal id): 281	8 (≈ 10.3 µM)
isolate (source animal id): 282	8 (≈ 10.3 µM)
isolate (source animal id): 283	8 (≈ 10.3 µM)
isolate (source animal id): 284	8 (≈ 10.3 µM)
isolate (source animal id): 285	4 (≈ 5.15 µM)
isolate (source animal id): 286	8 (≈ 10.3 µM)
isolate (source animal id): 287	8 (≈ 10.3 µM)
isolate (source animal id): 288	> 8
isolate (source animal id): 289	4 (≈ 5.15 µM)
isolate (source animal id): 290	8 (≈ 10.3 µM)
isolate (source animal id): 291	8 (≈ 10.3 µM)
isolate (source animal id): 292	8 (≈ 10.3 µM)
isolate (source animal id): 293	8 (≈ 10.3 µM)
isolate (source animal id): 294	2 (≈ 2.57 µM)
isolate (source animal id): 295	8 (≈ 10.3 µM)
isolate (source animal id): 296	8 (≈ 10.3 µM)
isolate (source animal id): 297	4 (≈ 5.15 µM)
isolate (source animal id): 298	8 (≈ 10.3 µM)
isolate (source animal id): 299	8 (≈ 10.3 µM)
isolate (source animal id): 300	4 (≈ 5.15 µM)
isolate (source animal id): 301	8 (≈ 10.3 µM)
isolate (source animal id): 302	4 (≈ 5.15 µM)
isolate (source animal id): 303	8 (≈ 10.3 µM)
isolate (source animal id): 304	8 (≈ 10.3 µM)
isolate (source animal id): 305	8 (≈ 10.3 µM)
isolate (source animal id): 306	8 (≈ 10.3 µM)
isolate (source animal id): 307	8 (≈ 10.3 µM)
isolate (source animal id): 308	8 (≈ 10.3 µM)
isolate (source animal id): 309	8 (≈ 10.3 µM)
isolate (source animal id): 310	8 (≈ 10.3 µM)
isolate (source animal id): 311	4 (≈ 5.15 µM)
isolate (source animal id): 312	4 (≈ 5.15 µM)
isolate (source animal id): 313	8 (≈ 10.3 µM)
isolate (source animal id): 314	4 (≈ 5.15 µM)
isolate (source animal id): 315	8 (≈ 10.3 µM)
isolate (source animal id): 316	> 8
isolate (source animal id): 317	> 8
isolate (source animal id): 318	4 (≈ 5.15 µM)
isolate (source animal id): 319	4 (≈ 5.15 µM)
isolate (source animal id): 320	8 (≈ 10.3 µM)
isolate (source animal id): 321	> 8
isolate (source animal id): 322	8 (≈ 10.3 µM)
isolate (source animal id): 323	> 8
isolate (source animal id): 324	8 (≈ 10.3 µM)
isolate (source animal id): 325	> 8
isolate (source animal id): 326	4 (≈ 5.15 µM)
isolate (source animal id): 327	4 (≈ 5.15 µM)
isolate (source animal id): 328	8 (≈ 10.3 µM)
isolate (source animal id): 329	8 (≈ 10.3 µM)
isolate (source animal id): 330	8 (≈ 10.3 µM)
isolate (source animal id): 331	4 (≈ 5.15 µM)
isolate (source animal id): 332	8 (≈ 10.3 µM)
isolate (source animal id): 333	8 (≈ 10.3 µM)
isolate (source animal id): 334	> 8
isolate (source animal id): 335	8 (≈ 10.3 µM)
isolate (source animal id): 336	> 8
isolate (source animal id): 337	4 (≈ 5.15 µM)
isolate (source animal id): 338	> 8
isolate (source animal id): 339	4 (≈ 5.15 µM)
isolate (source animal id): 340	> 8
isolate (source animal id): 341	4 (≈ 5.15 µM)
